Several values for one entry are separate records, joined by “and”; a condition that tells them apart may be missing. Equal entries are not always repeated. Structures can show the parent of a compound that is named as a salt. This is one part of the list. Most values come without repeats; read them as rough.
system: HeLa; assay: lysosomal-METRIQ red/green fluorescence ratio relative to DMSO (ratio to DMSO); higher = higher lysosomal activity / lysosomal biogenesis; details: 10 µM; 12 h

SMILES | lysosomal-METRIQ red/green fluorescence ratio
COc1cc2/c(=N/c3ccc(Br)cc3F)nc[nH]c2cc1OCC1CCN(C)CC1 [Vandetanib] | 0.909
COc1ccc(COc2ccc(Cc3cnc(N)nc3N)cc2OC)cc1 [cFMS Receptor Tyrosine Kinase Inhibitor] | 0.875
C/C=C/C=C\C=C/C(O)C(C)C(CCC(C)C1OC(=O)C=CC1C)OP(=O)(O)O (configuration not stated) [Cytostatin] | 0.933
COc1ccc(Cl)cc1C(=O)NCCc1ccc(S(=O)(=O)NC(=O)NC2CCCCC2)cc1 [Glibenclamide] | 1.04
C[C@@H](N)[C@H]1CC[C@H](C(=O)Nc2ccncc2)CC1 | 1.12 and 1.2
COC(=O)c1ccc(NCc2cc(O)ccc2O)cc1 | 1
CO[C@H]1C[C@@H]2CC[C@@H](C)[C@@](O)(O2)C(=O)C(=O)N2CCCC[C@H]2C(=O)O[C@H]([C@H](C)C[C@@H]2CC[C@@H](O)[C@H](OC)C2)CC(=O)[C@H](C)/C=C(\C)[C@@H](O)[C@@H](OC)C(=O)[C@H](C)C[C@H](C)/C=C/C=C/C=C/1C [Rapamycin] | 1.2
CC(ONC(=O)c1cc(C(F)(F)F)cc(C(F)(F)F)c1)C(=O)Nc1ccc(Cl)cc1 (configuration not stated) | 1.09
COc1cc(Nc2ncc3c(n2)-c2ccc(Cl)cc2C(c2c(F)cccc2OC)=NC3)ccc1C(=O)O | 1
CN(C)CCCN1c2ccccc2Sc2ccc(Cl)cc21 [chlorpromazine hydrochloride] | 0.727
O=c1c(-c2ccc(O)cc2)coc2cc(O)cc(O)c12 [Genistein] | 1.1
CC(C)c1ccc2c(c1)c(SC(C)(C)C)c(CC(C)(C)C(=O)O)n2Cc1ccc(Cl)cc1 | 1.13
